Assay results published in PubChem BioAssay AID493014 (National Center for Advancing Translational Sciences (NCATS), 2011).
Some of the results follow. The main result of the screen is listed elsewhere. These columns were measured beside it and carry no call. Compounds called inactive in the main read-out are mostly missing here. Potencies come from curve fits of mixed quality, noted in brackets.

Experiment: qHTS Assay to Find Inhibitors of Chronic Active B-Cell Receptor Signaling
Details: ABC-DLBCL IkBa-CBG/CBR reporter, luminescence ratio (green luciferase fused to IkBa over red control in TMD8 lymphoma cells), 4 h
Summary of the method: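 Doxycycline induced both beetle luciferases in TMD8 lymphoma cells; IKK-driven degradation limits the IkappaBalpha-fused green signal, while red luminescence normalises for cell number and nonspecific effects. Compounds tested up to 46 uM, 4 hrs.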

[1] = measured here: CBR red luminescence, cell number
[2] = measured here: IkBa-CBG green luminescence

Row | SMILES | AC50 [1] | AC50 [2]
1 | O=C1NC(=Nc2ccccc2)S/C1=C/c1cccnc1 | 7.08 µM [falling, partial curve, poor fit] | –
2 | O=C(Nc1cccnc1)c1cnc2ccccc2n1 | 11.2 µM [falling, partial curve, poor fit] | –
3 | CCc1noc(C)c1C(=O)Nc1cccc2ncccc12 | 2.51 µM [falling, full curve] | –
4 | CC(OC(=O)c1cnc2ccccc2n1)c1ccccc1Cl (stereo not drawn) | 7.94 µM [rising, partial curve] | –
5 | O=C(NCc1ccncc1)NC12CC3CC(CC(C3)C1)C2 | 0.316 µM [rising, full curve, poor fit] | –
6 | CCc1ccc(C(O)(c2ccccc2OC)C(CN2CCOCC2)c2ccccc2)cc1 (stereo not drawn) | 15.8 µM [falling, single point] | –
7 | Cc1cc(C)c2c(C)nn(C3CCCCC3)c2n1 | 4.61 µM [rising, partial curve, poor fit] | –
8 | C/C(=N\NC(=O)c1ccccc1F)c1ccccn1 | 11.2 µM [falling, partial curve] | 35.5 µM [falling, single point]
9 | CCC1SC(CC)C(=O)N(CC(=O)Nc2ccc3c(c2)OCO3)C1=O (stereo not drawn) | 14.6 µM [rising, partial curve, poor fit] | –
10 | Cc1ccccc1-c1nc(S(=O)(=O)c2ccc(Cl)cc2)c(NCCN2CCOCC2)o1 | 9.2 µM [falling, partial curve, poor fit] | –
11 | CC(C)NC(=O)c1onc(CSc2ccccc2)c1C(=O)O | 11.2 µM [falling, partial curve] | –
12 | O=C(c1cccs1)N1CCN(C(=O)c2cn(-c3ccccc3)nc2-c2ccccc2)CC1 | 20.6 µM [rising, partial curve] | –
13 | CCOc1ccc2c(O)csc2c1 | 3.66 µM [falling, partial curve, poor fit] | –
14 | Nc1n[nH]c(=S)n1-c1ccc(Cl)cc1 | 31.6 µM [falling, single point] | –
15 | Cc1cc(C(=O)Nc2ccccc2Cc2ccccc2)no1 | 7.94 µM [falling, partial curve] | –
16 | Cc1cccc(C)c1NC(=O)c1cc(-c2ccccn2)nc2ccccc12 | 22.4 µM [falling, single point] | –
17 | COc1ccc(C(=O)/C=C/Nc2ccc(S(=O)(=O)Nc3cccc(C(C)=O)c3)cc2)cc1 | 0.058 µM [rising, full curve, poor fit] | –
18 | COC(=O)c1c(-c2ccc(N(C)C)cc2)sc2ccc(OC)cc12 | 0.92 µM [rising, full curve, poor fit] | –
19 | COc1ccc(-c2cc([C@H]3[C@@H]4C=CCC[C@@]4(C)C(=O)N3Cc3ccccc3)ccc2F)cc1OC | 35.5 µM [falling, single point] | –
20 | CCOc1ccccc1NC(=O)C(=O)N/N=C/c1cc(Br)ccc1O | 6.31 µM [falling, partial curve] | –
21 | S=C(NCCCc1ccccc1)Nc1ccccc1Cl | 25.9 µM [falling, single point] | –

Row | SMILES | AC50 [1] | AC50 [2]
22 | CC1CCCN(c2ccc3nc4ccccc4c(=O)n3n2)C1 (stereo not drawn) | 10 µM [falling, partial curve, poor fit] | –
23 | COc1cccc(NC(=O)CC2SC(=Nc3ccccc3)NC2=O)c1 (stereo not drawn) | 2.91 µM [falling, full curve, poor fit] | –
24 | CNS(=O)(=O)c1ccc2c(c1)NC(=O)C1CCCN21 (stereo not drawn) | 14.6 µM [rising, partial curve, poor fit] | –
25 | O=C(CSc1ccc2c(c1)OCCO2)Nc1cccnc1Cl | 6.31 µM [falling, partial curve, poor fit] | –
26 | COc1ccc(C(=O)N2CCOCC2)cc1Br | 2.06 µM [rising, full curve, poor fit] | –
27 | COc1ccc(NC(=S)NC(=O)c2ccccc2)cn1 | 17.8 µM [falling, partial curve] | –
28 | C=CCN1C(=O)NC(c2ccc(OC)cc2)(C(F)(F)F)S/C1=C(\C#N)c1nnc(N2CCOCC2)n1-c1ccccc1 (stereo not drawn) | 5.17 µM [falling, partial curve] | –
29 | O=C(NC(=S)Nc1ccccc1C(=O)O)c1cncc(Br)c1 | 17.8 µM [falling, single point] | –
30 | COC(=O)c1cc(OC)c(OC)cc1NC(=S)Nc1cc(Cl)ccc1OC | 20.6 µM [falling, single point] | –
31 | Nc1nc(SCc2nnc(SCC(=O)O)n2-c2ccccc2)nc2sc3c(c12)CCCC3 | 7.31 µM [falling, partial curve, poor fit] | –
32 | CSc1ccccc1NC(=O)CN(c1ccccc1)S(=O)(=O)N(C)C | 0.116 µM [rising, full curve, poor fit] | –
33 | COc1ccccc1NC(=O)c1cc([N+](=O)[O-])ccc1NCCN1C(=O)CCC1=O | 2.51 µM [rising, full curve] | –
34 | O=C(NCc1cccs1)c1cc2c(s1)CCCC2 | 32.6 µM [falling, single point] | –
35 | COc1ccc(CC(=O)NCc2nnc(SCC(=O)Nc3nccs3)n2-c2ccccc2)cc1 | 23.1 µM [falling, partial curve, poor fit] | –
36 | CCOc1ccc(OCc2ccc(C(=O)Nc3ccc(Cl)cn3)o2)cc1 | 16.4 µM [falling, partial curve, poor fit] | –
37 | Cc1ccc(CCN2CC(C(=O)O)CC2=O)cc1 (stereo not drawn) | 6.51 µM [rising, single point] | –
38 | O=C(N/N=C/c1cccnc1)c1cc2ccccc2o1 | 23.1 µM [falling, partial curve, poor fit] | –
39 | OCCCCNCc1cc(Br)ccc1OCc1ccccc1 | 1 µM [rising, full curve, poor fit] | –
40 | Cn1cccc1/C=C1\SC(=O)N(c2ccc(O)cc2)C1=O | 18.4 µM [falling, partial curve] | –
41 | COc1ccccc1/C=N/Nc1nc(C)cc(C)n1 | 12.6 µM [falling, partial curve, poor fit] | –
42 | Cc1ccccc1C(=O)Oc1ccc2ccc(O)cc2c1 | – | 12.6 µM [falling, partial curve, poor fit]

Rewritten with tabs: 12 of the compounds above.
Row	SMILES	AC50 [1]	AC50 [2]
23	COc1cccc(NC(=O)CC2SC(=Nc3ccccc3)NC2=O)c1 (stereo not drawn)	2.91 µM [falling, full curve, poor fit]	–
24	CNS(=O)(=O)c1ccc2c(c1)NC(=O)C1CCCN21 (stereo not drawn)	14.6 µM [rising, partial curve, poor fit]	–
25	O=C(CSc1ccc2c(c1)OCCO2)Nc1cccnc1Cl	6.31 µM [falling, partial curve, poor fit]	–
26	COc1ccc(C(=O)N2CCOCC2)cc1Br	2.06 µM [rising, full curve, poor fit]	–
27	COc1ccc(NC(=S)NC(=O)c2ccccc2)cn1	17.8 µM [falling, partial curve]	–
28	C=CCN1C(=O)NC(c2ccc(OC)cc2)(C(F)(F)F)S/C1=C(\C#N)c1nnc(N2CCOCC2)n1-c1ccccc1 (stereo not drawn)	5.17 µM [falling, partial curve]	–
29	O=C(NC(=S)Nc1ccccc1C(=O)O)c1cncc(Br)c1	17.8 µM [falling, single point]	–
30	COC(=O)c1cc(OC)c(OC)cc1NC(=S)Nc1cc(Cl)ccc1OC	20.6 µM [falling, single point]	–
31	Nc1nc(SCc2nnc(SCC(=O)O)n2-c2ccccc2)nc2sc3c(c12)CCCC3	7.31 µM [falling, partial curve, poor fit]	–
32	CSc1ccccc1NC(=O)CN(c1ccccc1)S(=O)(=O)N(C)C	0.116 µM [rising, full curve, poor fit]	–
33	COc1ccccc1NC(=O)c1cc([N+](=O)[O-])ccc1NCCN1C(=O)CCC1=O	2.51 µM [rising, full curve]	–
34	O=C(NCc1cccs1)c1cc2c(s1)CCCC2	32.6 µM [falling, single point]	–
